Experimental data published in US20110219476A1, “GLUCURONYL TRANSFERASE AND POLYNUCLEOTIDE ENCODING THE SAME” (priority 2008, published 2011).
For at least one compound, name, drawing or mass did not settle the structure.

By UniProt entry, the sequences of proteins in these tests, tags left out.
UniProt C0STS8, entry or part of it: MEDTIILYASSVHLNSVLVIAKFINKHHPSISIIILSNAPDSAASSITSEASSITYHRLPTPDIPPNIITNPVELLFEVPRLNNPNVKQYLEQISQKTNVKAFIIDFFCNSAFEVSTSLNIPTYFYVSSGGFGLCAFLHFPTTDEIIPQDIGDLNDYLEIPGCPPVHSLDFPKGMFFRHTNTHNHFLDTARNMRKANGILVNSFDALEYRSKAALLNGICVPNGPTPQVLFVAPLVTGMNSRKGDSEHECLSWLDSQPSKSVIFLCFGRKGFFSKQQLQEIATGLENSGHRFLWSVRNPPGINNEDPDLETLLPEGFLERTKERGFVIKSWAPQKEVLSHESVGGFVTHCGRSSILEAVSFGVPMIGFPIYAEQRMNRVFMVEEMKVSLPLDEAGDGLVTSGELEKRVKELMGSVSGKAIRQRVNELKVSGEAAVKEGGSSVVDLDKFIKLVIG

Target: flavonoid 7-O-glucuronosyltransferase VpF7GAT (Veronica persica, UniProt C0STS8)
Assay: Selectivity of VpF7GAT to glycosyl acceptor substrates (glycosyl donor: UDP-glucuronic acid)
Assay type: biochemical
Details: compared to other glycosyl acceptor substrates
Protocol: Standard reaction conditions are as follows. […] The mixture was reacted at 30° C. for 1 minute. The reaction was then terminated by adding 50 μl of CH3CN containing 0.5% TFA. The product was analyzed by reversed phase HPLC (LC-2010 System, Shimadzu Corporation).
The conditions for HPLC are as follows. Develosil C30-UG-5 column (4.6 mm×150 mm, Nomura Chemical) was used with a column oven at 40° C., and the moving phase A (0.1% TFA/H2O) and the moving phase B (0.1% TFA/90% CH3CN) were used. The conditions for elution include a linear density gradient (B20%→B70%) for 15 minutes, then retention with B70% for further 1 minute and again reverting to B20%, followed by equilibration for 20 minutes. HPLC was performed at the flow of 1 ml/min. Detection was performed at 280 and 360 nm using a SPD-M10A Photodiode Array Detector (Shimadzu Corporation).

## O=c1cc(-c2ccc(O)cc2)oc2cc(O)c(O)c(O)c12 [scutellarein]
  activity of VpF7GAT with the glycosyl acceptor substrate (in words, summary in the description): strong
